Assay results taken from paper PMC8436915.
Results are given in words; binding and its absence hold for the method and conditions named. Binding seen in cells or lysates may run through a third protein. Some results given as binding are weak or reduced against the parent protein; the word gives no strength.

Amino acid sequences for entries named in this document (tags omitted).
UniProt P06493: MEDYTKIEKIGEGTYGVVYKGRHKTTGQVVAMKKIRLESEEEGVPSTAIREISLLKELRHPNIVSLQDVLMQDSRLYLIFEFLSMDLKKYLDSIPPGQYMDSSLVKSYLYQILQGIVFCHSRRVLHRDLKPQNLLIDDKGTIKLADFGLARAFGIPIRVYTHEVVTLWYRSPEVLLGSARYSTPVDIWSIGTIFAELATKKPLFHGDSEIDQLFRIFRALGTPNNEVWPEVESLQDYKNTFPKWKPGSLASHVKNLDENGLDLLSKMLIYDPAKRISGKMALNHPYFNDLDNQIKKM

Target: CDK1 (human) (UniProt P06493)
Test: co-IP; in SK-HEP-1 cells; detection by Western blot; bait, antibodies and buffers not told

**Q.** For “DEP domain containing 1B (DEPDC1B) (from UniProt Q8WUY9-1 1-529)”, which binding is on record?
**A.** binds
